Reference: paper PMC4536591
Results are given in words; binding and its absence hold for the method and conditions named. In cells and extracts the contact can be indirect. Some entries that bind do so weakly or less than the wild type.

Amino acid sequences for entries named in this document (tags omitted).
UniProt P07355: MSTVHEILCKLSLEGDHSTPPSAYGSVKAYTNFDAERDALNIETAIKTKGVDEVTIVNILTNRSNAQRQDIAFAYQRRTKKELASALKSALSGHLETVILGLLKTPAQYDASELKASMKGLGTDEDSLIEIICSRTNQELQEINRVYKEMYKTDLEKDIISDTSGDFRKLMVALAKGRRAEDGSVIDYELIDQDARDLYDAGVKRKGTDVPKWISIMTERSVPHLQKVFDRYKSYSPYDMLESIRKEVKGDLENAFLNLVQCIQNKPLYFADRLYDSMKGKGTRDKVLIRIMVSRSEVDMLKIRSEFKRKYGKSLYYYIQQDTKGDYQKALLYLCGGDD

T1: Migration and invasion enhancer 1 (MIEN1), endogenous (human (endogenous in BT-474)) (UniProt Q9BRT3)
T1 sequence: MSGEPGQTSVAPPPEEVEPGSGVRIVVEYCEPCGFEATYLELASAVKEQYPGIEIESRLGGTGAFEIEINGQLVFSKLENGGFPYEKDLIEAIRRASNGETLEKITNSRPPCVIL

B1: Migration and invasion enhancer 1 (MIEN1), endogenous (protein, UniProt Q9BRT3 1-115)
chain: MSGEPGQTSVAPPPEEVEPGSGVRIVVEYCEPCGFEATYLELASAVKEQYPGIEIESRLGGTGAFEIEINGQLVFSKLENGGFPYEKDLIEAIRRASNGETLEKITNSRPPCVIL

Assays:
[1] = biological target: T1, Migration and invasion enhancer 1 (MIEN1), endogenous (human (endogenous in BT-474)); assay: co-IP; endogenous proteins, BT-474 cells, NP-40 lysis buffer, protein A/G PLUS-agarose beads; immunoprecipitation of AnxA2 and reciprocal immunoprecipitation of MIEN1; IgG isotype control
[2] = biological target: Annexin A2, endogenous (human (endogenous in BT-474)) (UniProt P07355); assay: as above

Molecule	binding [1]	binding [2]
Annexin A2, endogenous (from UniProt P07355 1-339)	binds	
B1		binds
